From paper doi:10.1101/2023.06.30.547196
These are yes or no findings as the source states them, for the method shown. In cells and extracts the contact can be indirect. Some binding calls cover weakened binding; strength is not graded here. Tags and fused reporters may be left off the sequences shown.

Chains of the proteins cited; added tags and fusions are not shown.
UniProt Q8IY18: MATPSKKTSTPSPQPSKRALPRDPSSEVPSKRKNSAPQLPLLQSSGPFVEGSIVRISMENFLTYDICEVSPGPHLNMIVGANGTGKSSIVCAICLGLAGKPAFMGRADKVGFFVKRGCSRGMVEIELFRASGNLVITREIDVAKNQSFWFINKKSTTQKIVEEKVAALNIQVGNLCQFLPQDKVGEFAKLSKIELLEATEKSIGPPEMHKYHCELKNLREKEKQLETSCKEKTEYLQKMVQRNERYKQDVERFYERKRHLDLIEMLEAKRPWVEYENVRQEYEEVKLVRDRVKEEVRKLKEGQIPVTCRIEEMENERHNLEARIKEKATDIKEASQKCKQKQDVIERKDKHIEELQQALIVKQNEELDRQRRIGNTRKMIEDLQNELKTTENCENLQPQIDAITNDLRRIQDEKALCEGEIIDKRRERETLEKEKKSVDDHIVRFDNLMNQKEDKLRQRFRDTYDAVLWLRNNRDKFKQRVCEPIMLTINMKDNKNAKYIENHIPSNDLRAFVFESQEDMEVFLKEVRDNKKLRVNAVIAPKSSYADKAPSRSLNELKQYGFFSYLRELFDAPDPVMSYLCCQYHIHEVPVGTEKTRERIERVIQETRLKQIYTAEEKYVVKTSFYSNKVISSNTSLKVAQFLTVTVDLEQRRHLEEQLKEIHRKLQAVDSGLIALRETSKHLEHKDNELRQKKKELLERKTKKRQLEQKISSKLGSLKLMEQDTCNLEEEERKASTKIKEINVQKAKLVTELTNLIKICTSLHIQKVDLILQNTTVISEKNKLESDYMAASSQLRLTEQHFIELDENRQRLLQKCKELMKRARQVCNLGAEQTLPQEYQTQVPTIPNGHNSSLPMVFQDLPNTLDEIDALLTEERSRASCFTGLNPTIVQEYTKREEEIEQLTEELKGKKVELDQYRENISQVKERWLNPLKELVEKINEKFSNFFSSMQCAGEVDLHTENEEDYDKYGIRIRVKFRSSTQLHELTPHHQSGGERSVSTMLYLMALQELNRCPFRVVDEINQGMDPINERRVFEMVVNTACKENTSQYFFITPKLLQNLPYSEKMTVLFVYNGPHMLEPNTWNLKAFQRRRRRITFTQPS

Target: T1, Flag-tagged full-length NFATC2IP (human) (UniProt Q8NCF5)
T1 sequence: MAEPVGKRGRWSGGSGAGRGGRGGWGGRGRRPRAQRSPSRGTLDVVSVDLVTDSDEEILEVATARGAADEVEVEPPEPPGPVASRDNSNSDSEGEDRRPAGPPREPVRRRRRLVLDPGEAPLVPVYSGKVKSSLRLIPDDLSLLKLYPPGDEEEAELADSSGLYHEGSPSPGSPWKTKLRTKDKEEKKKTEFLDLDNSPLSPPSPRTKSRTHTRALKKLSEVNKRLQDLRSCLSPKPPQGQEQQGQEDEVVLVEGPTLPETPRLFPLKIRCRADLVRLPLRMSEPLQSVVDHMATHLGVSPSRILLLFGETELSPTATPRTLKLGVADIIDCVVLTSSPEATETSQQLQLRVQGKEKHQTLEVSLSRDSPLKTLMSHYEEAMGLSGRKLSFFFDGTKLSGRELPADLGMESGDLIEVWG
Assay: co-IP

Substance: endogenous SMC5 (from UniProt Q8IY18 1-1101)
- binding: binds
